# Assay results reported in PMC13649115.
# Results are given in words; binding and its absence hold for the method and conditions named. Binding seen in cells or lysates may run through a third protein. Some entries that bind do so weakly or less than the wild type.
# T1: MARCHF5 (human (endogenous in BC-3)) (UniProt Q9NX47)
# T1 sequence: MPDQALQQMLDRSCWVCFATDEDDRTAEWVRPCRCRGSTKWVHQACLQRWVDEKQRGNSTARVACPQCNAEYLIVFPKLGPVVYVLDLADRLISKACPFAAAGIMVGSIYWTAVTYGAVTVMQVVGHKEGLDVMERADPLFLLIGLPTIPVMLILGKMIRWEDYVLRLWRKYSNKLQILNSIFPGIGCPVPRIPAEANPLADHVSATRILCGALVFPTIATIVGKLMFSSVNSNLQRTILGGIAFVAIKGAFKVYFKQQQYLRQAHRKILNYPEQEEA
# Target: T1, MARCHF5 (human (endogenous in BC-3))
# Test: co-IP; reciprocal co-IP of endogenous proteins from BC-3 cells; lysis in IP buffer (25 mM HEPES, 100 mM NaCl, 10 mM CaCl2, 5 mM MgCl2) with 1% digitonin; anti-NOXA, anti-MARCHF5 or rabbit IgG overnight at 4 C, Protein A/G magnetic beads; Western blot for MARCHF5 or NOXA
binder,measurement,value
"NOXA (protein, UniProt Q13794 1-54) MPGKKARKNAQPSPARAPAELEVECATQLRRFGDKLNFRQKLLNLISKLFCSGT",binding,binds
